In paper PMC3565290:
Results are given in words; binding and its absence hold for the method and conditions named. Some results given as binding are weak or reduced against the parent protein; the word gives no strength. Where a sequence is shown, tags or fusion partners need not be part of it.

The chains behind the UniProt entries cited, without tags or fusion partners.
UniProt O81445: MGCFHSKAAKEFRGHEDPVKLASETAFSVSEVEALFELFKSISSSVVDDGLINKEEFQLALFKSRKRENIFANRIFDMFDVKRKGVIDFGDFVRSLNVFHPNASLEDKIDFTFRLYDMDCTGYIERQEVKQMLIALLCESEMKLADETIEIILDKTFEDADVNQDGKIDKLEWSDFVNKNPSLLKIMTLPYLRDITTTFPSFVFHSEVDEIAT

Columns and labels:
[1] = target: T1, VDAC1 (voltage-dependent anion channel 1, AtVDAC1) in pGBKT7, two-hybrid bait (Arabidopsis) (UniProt Q9SRH5); experiment: two-hybrid; directed test: pGADT7-CBL1 (full coding sequence) co-introduced with pGBKT7-VDAC1 into yeast AH109; growth on SD-Trp-Leu-Ade-His for four days, then β-galactosidase assay; empty vectors as controls
T1 sequence: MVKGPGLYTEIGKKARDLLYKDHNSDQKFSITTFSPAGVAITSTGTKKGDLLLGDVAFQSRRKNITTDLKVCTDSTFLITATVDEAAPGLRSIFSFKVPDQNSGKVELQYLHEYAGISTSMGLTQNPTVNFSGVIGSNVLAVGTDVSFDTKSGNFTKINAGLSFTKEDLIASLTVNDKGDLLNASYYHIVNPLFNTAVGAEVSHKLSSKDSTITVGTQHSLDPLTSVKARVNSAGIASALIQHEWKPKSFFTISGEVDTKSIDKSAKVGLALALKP

GST-VDAC1 (Arabidopsis) = target: T2, GST-VDAC1 (Arabidopsis) (UniProt Q9SRH5); experiment: pull-down; GST-VDAC1 on glutathione sepharose beads incubated overnight at 4 °C with purified His-CBL1; washed five times with ice-cold phosphate-buffered saline; western blot with anti-His antibody; both purified
T2 sequence: T1 sequence

Substance | binding [1] | binding (GST-VDAC1 (Arabidopsis))
CBL1 (calcineurin B-like 1), full coding sequence in pGADT7-Rec2, two-hybrid prey (from UniProt O81445 1-213) | binds | 
His-CBL1 (from UniProt O81445 1-213) |  | binds
